# From PubChem BioAssay AID504834 (National Center for Advancing Translational Sciences (NCATS), 2011)
# The campaign covered roughly 320,000 compounds. About 22,000 (6.9%) were called active. Inconclusive results, whose numbers are uncertain, are shown with a selection of clear calls. The call rests on the fitted dose curve; in most records, active means well fitted inhibition curve with a large enough effect; inconclusive means small, poorly fitted or top-dose-only effect, or another doubt; inactive means no such curve, though single readings can be large or run the other way. Potencies beside an inconclusive call are fits to weak or partial responses and may not hold up.
# Experiment: Primary qHTS for delayed death inhibitors of the malarial parasite plastid, 96 hour incubation
# Conditions: P. falciparum luciferase reporter growth; series mostly up to 28.7 µM
# How it was run: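 Plates of compound plus infected erythrocytes (2% hematocrit, 0.05% parasitemia final) incubate 96 hours, 37 C, 5% CO2. Detection reagent added; reduced luminescence from the parasites' luciferase reporter flags inhibition.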
# Potency means the concentration at half of the fitted maximal effect.
row,SMILES,Potency
1,COc1cc(OC)c2c(C)cc(=O)oc2c1C(CCN1CCOCC1)c1ccc2c(c1)OCO2 (centres undefined),"inconclusive: 13.1 µM [inhibitor, single point]"
2,CCCOc1ccc(NC(=O)CC2Nc3ccccc3NC2=O)cc1 (centres undefined),"inconclusive: 3.7 µM [inhibitor, single point]"
3,Cc1ccc(S(=O)(=O)Oc2ccc(/C=N/N=C3/NC(=O)C(CC(=O)O)S3)cc2)cc1 (centres undefined),"inconclusive: 16.5 µM [inhibitor, partial curve, poor fit]"
4,CCOC(=O)c1ccc(NC(=O)c2nc[nH]c2C(=O)N2CCN(C(=O)OC(C)(C)C)CC2)cc1,"inconclusive: 18.5 µM [inhibitor, single point]"
5,COc1ccc(/C=C(/NC(=O)c2ccco2)C(=O)NCc2ccco2)cc1OC,"inconclusive: 0.415 µM [inhibitor, full curve]"
6,CC(=O)c1ccc(-c2cccc(-c3nc4ccccn4c3NC3CCCCC3)c2)cc1,"inconclusive: 14.7 µM [inhibitor, single point]"
7,COc1ccc(N(CN2C(=O)C3CCCCC3C2=O)C(=O)c2ccco2)cc1 (centres undefined),inactive
8,CCc1ccccc1NC(=O)CCCSc1nc2ccccc2s1,inactive
9,CC(C)(O)C#Cc1ccc(CN2CCN(C3CCCCC3)C(CCO)C2)cc1 (centres undefined),"inconclusive: 4.15 µM [inhibitor, full curve, poor fit]"
10,COC(=O)c1ccccc1NC(=O)C1CC(=O)N(c2ccc(C)c(C)c2)C1 (centres undefined),active: 4.15 µM
11,O=C(COC(=O)c1cc([N+](=O)[O-])ccc1N1CCOCC1)Nc1ccc(Cl)cn1,"inconclusive: 20.8 µM [inhibitor, partial curve, poor fit]"
12,O=C(N/N=C(\Cc1ncc[nH]1)c1ccccc1)c1ccccc1,"inconclusive: 1.47 µM [inhibitor, partial curve, poor fit]"
13,Cc1ccc(OCc2ccc(C(=O)NCC3CCCO3)cc2)cc1C (centres undefined),"inconclusive: 18.5 µM [inhibitor, single point]"
14,CCN1CCN(Cc2ccc(NC(=O)c3ccc(C)c(NC(=O)N4CCNC4=O)c3)cc2C(F)(F)F)CC1,"inconclusive: 18.5 µM [inhibitor, single point]"
15,C=CCn1c(=S)[nH]c2cc(C(=O)Nc3ccc(F)cc3)ccc2c1=O,"inconclusive: 2.94 µM [inhibitor, partial curve]"
16,Cc1ccc(-c2noc(C3CCCN(C(=O)C4CCCCC4)C3)n2)o1 (centres undefined),active: 1.04 µM
17,CCCCNC(=O)C1c2cc(OC)c(OC)cc2C(=O)N(C)C1c1cccs1 (centres undefined),active: 2.08 µM
18,CC(=O)C1C(c2ccc(Cl)cc2)c2c(noc2C)CC1(C)O (centres undefined),inactive
19,O=C(O)c1cc(=O)c2ccccc2[nH]1,inactive
20,Cc1cccc(NC(=O)CC2C(=O)NCCN2C(=S)Nc2ccccc2)c1 (centres undefined),"inconclusive: 0.165 µM [inhibitor, full curve, poor fit]"
21,Cc1cccc(NC(=O)Nc2cccc(C#N)c2)n1,"inconclusive: 0.233 µM [inhibitor, partial curve, poor fit]"
22,Fc1ccc(OCCCCCn2ccnc2)cc1,active: 4.15 µM
23,CCN(CC)S(=O)(=O)c1ccc(C(=O)Nc2nnc(COC)o2)cc1,inactive

# Six of the compounds above, with tabs:
row	SMILES	Potency
1	COc1cc(OC)c2c(C)cc(=O)oc2c1C(CCN1CCOCC1)c1ccc2c(c1)OCO2 (centres undefined)	inconclusive: 13.1 µM [inhibitor, single point]
14	CCN1CCN(Cc2ccc(NC(=O)c3ccc(C)c(NC(=O)N4CCNC4=O)c3)cc2C(F)(F)F)CC1	inconclusive: 18.5 µM [inhibitor, single point]
15	C=CCn1c(=S)[nH]c2cc(C(=O)Nc3ccc(F)cc3)ccc2c1=O	inconclusive: 2.94 µM [inhibitor, partial curve]
17	CCCCNC(=O)C1c2cc(OC)c(OC)cc2C(=O)N(C)C1c1cccs1 (centres undefined)	active: 2.08 µM
19	O=C(O)c1cc(=O)c2ccccc2[nH]1	inactive
20	Cc1cccc(NC(=O)CC2C(=O)NCCN2C(=S)Nc2ccccc2)c1 (centres undefined)	inconclusive: 0.165 µM [inhibitor, full curve, poor fit]

# Going on with the list:

row,SMILES,Potency
1,NC(=O)c1ccc(/C=N/O)[n+](Cc2ccccc2)c1,inactive
2,Cc1c(Cl)cccc1NC(=O)[C@@H](NC(=O)c1ccccc1Cl)C(C)C,"inconclusive: 8.28 µM [inhibitor, partial curve, poor fit]"
3,Cc1ccccc1SCC(=O)Nc1cc(C(F)(F)F)ccc1N1CCOCC1,active: 4.65 µM
4,COCC(N)(c1ccccc1)c1nc2ccccc2n1C (centres undefined),"inconclusive: 18.5 µM [inhibitor, single point]"
5,Cc1cccc(NC(=O)CN2CCN(C(=O)COc3cccc(Br)c3)CC2)c1C,"inconclusive: 0.657 µM [inhibitor, full curve]"
6,Cc1cccc(NC(=O)NC2(C(=O)NCc3ccco3)CCCCC2)c1,"inconclusive: 8.28 µM [inhibitor, partial curve]"
7,CN(C)c1ccc(/C=C2/C=C(c3ccc4c(c3)CCCC4)OC2=O)cc1,inactive
8,O=C(O)c1cccc(NC(=S)N/N=C/c2ccccc2OCc2cccc(Br)c2)c1,"inconclusive: 0.415 µM [inhibitor, partial curve, poor fit]"
9,CCOC(=O)C1=C(c2ccccc2)NC(=O)NC1c1ccc(OCC#N)c(OC)c1 (centres undefined),"inconclusive: 14.7 µM [inhibitor, partial curve, poor fit]"
10,O=C(COC(=O)c1ccc(Br)o1)Nc1ccc(N2CCOCC2)cc1,inactive
11,O=C(NCc1ccc(Cl)cc1)C1CCN(C(=O)c2ccc(Cl)cc2)CC1,"inconclusive: 2.94 µM [inhibitor, full curve]"
12,CCOc1ccc(OCCn2c(=S)[nH]c3ccccc32)cc1,"inconclusive: 0.0329 µM [inhibitor, full curve, poor fit]"
13,Cc1ccc(NC(=O)CSC2=C(C#N)C(c3ccco3)C3=C(CC(C)(C)CC3=O)N2)cc1 (centres undefined),"inconclusive: 3.7 µM [inhibitor, partial curve, poor fit]"
14,O=C(O)CCn1c(C(=O)O)cc2sccc21,"inconclusive: 11.7 µM [inhibitor, single point]"
15,O=C(Nc1nncs1)c1ccccc1Br,"inconclusive: 18.5 µM [inhibitor, single point]"
16,CCC(C)NS(=O)(=O)c1ccc(OCC(=O)N2CCCCC2)cc1 (centres undefined),"inconclusive: 13.1 µM [inhibitor, single point]"
17,Cn1/c(=N/N=C/c2ccc(N3CCOCC3)cc2)sc2ccccc21,inactive
18,CC1=C(C(=O)N(C)Cc2ccccc2)C2(CCC(C)CC2)OC1=O (centres undefined),"inconclusive: 3.29 µM [inhibitor, partial curve]"
19,O=C(NCc1ccco1)C(c1ccc(F)cc1)N(Cc1cccnc1)C(=O)Cn1nnc2ccccc21 (centres undefined),"inconclusive: 0.0828 µM [inhibitor, full curve, poor fit]"
20,CCN(CC)S(=O)(=O)c1ccc(NC(=O)COc2c(OC)cccc2OC)cc1,"inconclusive: 14.7 µM [inhibitor, partial curve, poor fit]"
21,O=C(OCc1nc2ccccc2s1)c1cccc(N2C(=O)CCC2=O)c1,inactive
22,COc1ccc(C(=O)CSC2=NS(=O)(=O)c3cc(Cl)ccc3N2)cc1,inactive
23,CCc1ccc(NC(=O)CCNC(=O)Cn2cnc3ccccc3c2=O)cc1,"inconclusive: 1.85 µM [inhibitor, single point]"

row,SMILES,Potency
1,Nc1ccccc1N=Cc1c(O)n(CCC2=CCCCC2)c(=O)[nH]c1=O,"inconclusive: 18.5 µM [inhibitor, single point]"
2,O=C(C1=C(O)C(=O)N(CC2CCCO2)C1c1cccc(O)c1)c1ccco1 (centres undefined),inactive
3,Cc1ccc(C2CCN(C(=S)NC3CCCCC3)C2)cc1 (centres undefined),"inconclusive: 1.04 µM [inhibitor, partial curve]"
4,CCCC(C(=O)NCc1ccccc1)N(C(=O)Cn1nnc(-c2cccs2)n1)c1ccc2c(c1)OCCO2 (centres undefined),"inconclusive: 9.28 µM [inhibitor, partial curve, poor fit]"
5,CC1(C)CC(=O)C2=C(C1)N(CCN1CCOCC1)C1=C(C(=O)CC(C)(C)C1)C2c1ccc(Cl)cc1,"inconclusive: 0.928 µM [inhibitor, full curve]"
6,CC(=O)Nc1cccc(C(=O)/C=C/c2ccco2)c1,"inconclusive: 3.7 µM [inhibitor, partial curve]"
7,CC(C)n1c(NCCc2ccccc2)nc2c1c(=O)n(C)c(=O)n2C,inactive
8,CCOc1cccc(C(=O)Nc2cccc(NC(=O)c3ccco3)c2)c1,inactive
9,Cn1c(CCNC(=O)c2ccco2)nc2cc(NC(=O)C3CCCCC3)ccc21,"inconclusive: 18.5 µM [inhibitor, single point]"
10,COc1ccc(N2CC(C(=O)Nc3cccc(C)n3)CC2=O)cc1 (centres undefined),inactive
11,COc1ccc(-c2c(C)oc3c(CN4CCCCC4C)c(O)ccc3c2=O)cc1 (centres undefined),"inconclusive: 6.57 µM [inhibitor, partial curve, poor fit]"
12,Cn1c(SCC(=O)NCc2ccccc2)nc2c([nH]c3ccccc32)c1=O,"inconclusive: 6.57 µM [inhibitor, single point]"
13,Cc1cc(C)n(-c2nc(SCCN(C)C)c3c4c(sc3n2)COC(C)(C)C4)n1,active: 1.47 µM
14,Cc1nnsc1-c1c(C(=O)N2CCOCC2)c(C)nn1-c1ccc(Cl)cc1,"inconclusive: 1.31 µM [inhibitor, full curve, poor fit]"
15,O=C(NC1CCCCCC1)c1cccc(N2CCCC2=O)c1,inactive
16,CC(C)c1ccc(NC2CCCN(C(=O)c3cscn3)C2)cc1 (centres undefined),"inconclusive: 18.5 µM [inhibitor, single point]"
17,CCOC(=O)c1c(C)[nH]c(C(=O)NCc2ccco2)c1C,inactive
18,O=C(/C=C/c1ccc(S(=O)(=O)N2CCOCC2)cc1)N(CCO)Cc1ccccc1,inactive
19,Cc1nn(C)c(C)c1S(=O)(=O)N(CC(=O)NCCN1CCOCC1)c1ccc(C(C)C)cc1,inactive
20,CC(Sc1nc(O)c(-c2ccccc2)c(=O)[nH]1)C(=O)Nc1ccc(Cl)cc1 (centres undefined),"inconclusive: 18.5 µM [inhibitor, single point]"
21,CCOc1ccc(OC(=O)NC(c2ccccc2)C(Cl)(Cl)Cl)cc1 (centres undefined),"inconclusive: 0.329 µM [inhibitor, partial curve, poor fit]"
22,c1ccc(-c2c(-c3ccccc3)n(Cc3ccco3)c3ncnc(NCCCn4ccnc4)c23)cc1,active: 2.08 µM
23,CCOC(=O)N1CCC(NS(=O)(=O)c2cc3c(cc2Cl)NC(=O)CO3)CC1,active: 0.208 µM
